# Measurements taken from PubChem BioAssay AID1487 (National Center for Advancing Translational Sciences (NCATS), 2009).
# The list shows a part of the results. Further columns of the screen follow, without active or inactive calls. The list favours compounds with an active or inconclusive main result. Potencies come from curve fits of mixed quality, noted in brackets.
# Test: qHTS Assay for Modulators of Lamin A Splicing
# Details: HeLa LMNA splicing GFP/RFP minigene ratio, 48 h
# Summary of the method: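 S3 HeLa stable clones carrying a lamin A-EGFP splicing minigene plus DsRed2 were seeded at 600 cells/well in Opti-MEM with 2% FBS, pin-dosed and incubated 48 h at 37°C. Acumen cytometry (488 nm) gave the GFP/RFP total-intensity ratio.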
# [1] = measured here: RFP viability control channel
# [2] = measured here: GFP splicing reporter channel
SMILES,AC50 [1],AC50 [2]
C=CCc1cccc(/C=N/n2cnnc2)c1O,"4.47 µM [rising, single point]",–
O=C(N/N=C/c1cn(-c2ccccc2)nc1-c1cccnc1)c1cccnc1,"14.1 µM [rising, partial curve, poor fit]",–
Cc1ccc(C2C3=C(CC(C)(C)CC3=O)N=C3c4ccccc4C(=O)C32)cc1 (stereo unspecified),"14.1 µM [rising, partial curve]",–
Cc1c(C(=O)Nc2ccccc2)sc2nc(-c3ccccc3)cn12,"10 µM [rising, partial curve, poor fit]",–
C/C(=N\NC(N)=S)C12CC3CC(CC(C3)C1)C2,–,"11.2 µM [rising, partial curve]"
CN(Cc1cn(-c2ccccc2)nc1-c1ccc(Cl)cc1)C(=O)CCC(=O)O,–,"8.91 µM [rising, single point]"
CC(=O)C1=C(C)Nc2ncnn2C1c1cccc(OCc2ccccc2)c1 (stereo unspecified),"35.5 µM [rising, single point]",–
COC(=O)c1ccc(Oc2ccc(C(F)(F)F)cn2)cc1,"0.00355 µM [falling, full curve, poor fit]",–
Cc1ccc(-c2nnc(N3CCOCC3)c3ccccc23)cc1S(=O)(=O)NCC1CCCO1 (stereo unspecified),"22.4 µM [rising, single point]","12.6 µM [rising, single point]"
CC(C(=O)N1CCN(C2c3ccccc3-c3ccccc32)CC1)N1C(=O)c2ccccc2C1=O (stereo unspecified),"10 µM [rising, partial curve]",–
O=[N+]([O-])c1nn(-c2ccccc2)n(O)c1=NC1CCN(Cc2ccccc2)CC1,"3.16 µM [falling, single point]",–
CC(C)[C@H](NC(=O)OC(C)(C)C)c1nnc(SCc2cccc(F)c2)o1,"11.2 µM [rising, single point]",–
c1ccc(Cn2c(-c3cncs3)nc3ccccc32)cc1,"35.5 µM [rising, single point]",–
COc1ccc(-n2c(C)cc(C(=O)Cn3c(NCCO)nc4ccccc43)c2C)cc1,"31.6 µM [rising, single point]","31.6 µM [rising, single point]"
O=c1cc(CSc2nnc(-c3cccs3)n2Cc2ccccc2)nc2sc3ccccc3n12,"0.631 µM [rising, full curve]","0.178 µM [rising, full curve, poor fit]"
CCc1ccc(Nc2ccc(C(N)=O)cc2[N+](=O)[O-])cc1,"22.4 µM [rising, single point]","35.5 µM [rising, single point]"
CC1(C)Oc2ccc3ccc(=O)oc3c2-c2cn[nH]c21,"31.6 µM [rising, single point]",–
O=C(Nc1nc(-c2cccnc2)cs1)c1ccc(S(=O)(=O)N2CCOCC2)cc1,"10 µM [rising, partial curve]","5.62 µM [rising, full curve, poor fit]"
COc1ccc2ccccc2c1C1CC(=O)N2CN(Cc3ccco3)CSC2=C1C#N (stereo unspecified),–,"35.5 µM [rising, single point]"
O=C(O)c1cc(=O)c2ccc(Cl)cc2[nH]1,"0.00178 µM [falling, full curve, poor fit]","0.00398 µM [falling, full curve, poor fit]"
O=C(NCCSc1c[nH]c2ccccc12)c1ccc(Br)o1,"35.5 µM [rising, single point]",–
C=CCN(C(=O)CSc1nc2[nH]ncc2c(=O)n1-c1ccccc1OC)c1ccccc1,"35.5 µM [rising, single point]",–
O=C(Cn1nc(C(F)(F)F)c2c1CCCC2)Nc1cccc(Cl)c1,"28.2 µM [rising, partial curve, poor fit]","0.00316 µM [rising, full curve, poor fit]"
C=CCc1cc(C=O)cc(OC)c1OCc1c(Cl)cccc1Cl,–,"0.0251 µM [falling, partial curve]"
FC(F)(F)c1cccc(N2CCN(c3ncnc4c3nc3n4CCCC3)CC2)c1,–,"0.0501 µM [falling, full curve, poor fit]"
CCN(CCCNC(=O)COc1cc(=O)n(CC)c2ccccc12)Cc1ccccc1,"11.2 µM [rising, partial curve]",–
Cc1cc(C)c(COc2ccc(/C=N/n3c(C)n[nH]c3=S)cc2)c(C)c1,"35.5 µM [rising, single point]","35.5 µM [rising, single point]"
Cc1ccc(Cc2nc3ccccc3nc2SCC(=O)N2CCC(C)CC2)cc1,"17.8 µM [rising, partial curve, poor fit]","0.316 µM [rising, full curve]"

SMILES,AC50 [1],AC50 [2]
COc1cccc(C(=O)N(CN2CCCC2=O)c2ccccc2OC)c1,"7.08 µM [rising, partial curve]","5.01 µM [rising, partial curve]"
COc1ccc(F)cc1CN1CCN(c2cc(C)nc3c4c(C)cc(C)nc4nn23)CC1,"14.1 µM [rising, single point]",–
COc1ccc(N2CCN(C(=O)CN(c3ccc(Br)cc3)S(C)(=O)=O)CC2)cc1,"22.4 µM [rising, single point]","12.6 µM [rising, partial curve]"
Cc1cccc(N(CC(N)=O)C2SC(=O)NC2=O)c1 (stereo unspecified),–,"11.2 µM [falling, partial curve, poor fit]"
CCCCCCCCC(=O)NNC(=O)c1c(O)c2ccccc2n(CC)c1=O,"7.08 µM [rising, partial curve]",–
Cc1ccc(NC(=O)NC(=S)NC(=O)c2ccccc2)cc1,"22.4 µM [rising, single point]",–
CCC1Sc2ccccc2N(CC(=O)NCc2ccc(C)cc2)C1=O (stereo unspecified),–,"3.55 µM [rising, partial curve, poor fit]"
Cc1ccc(S(=O)(=O)N2CCN(C(=O)CCC(=O)NCCc3ccc(S(N)(=O)=O)cc3)CC2)c(C)c1,"0.00708 µM [falling, full curve]","0.00316 µM [falling, full curve, poor fit]"
COC(=O)c1ccc(C(=O)OC)c(NC(=S)N2CC(C)CC(C)C2)c1 (stereo unspecified),"3.98 µM [falling, partial curve]",–
CN(CCOc1ccc(CC2SC(=O)NC2=O)cc1)c1ccccn1 (stereo unspecified),–,"0.00794 µM [falling, full curve]"
COc1ccc(C(=O)Nc2oc(-c3ccccc3)c(-c3ccccc3)c2C#N)cc1,"15.8 µM [falling, single point]",–
COc1ccc(N2CCN(C(CNS(=O)(=O)c3ccc(OC)c(C)c3)c3ccco3)CC2)cc1 (stereo unspecified),"0.00316 µM [falling, full curve, poor fit]",–
CC(=O)Nc1ccc(NC(=O)c2ccccc2S(=O)(=O)c2ccccc2[N+](=O)[O-])cc1,"0.178 µM [rising, full curve, poor fit]",–
CN(Cc1ccccc1)C(=O)c1oc(=O)c2ccccc2c1-c1ccccc1,"35.5 µM [rising, single point]","35.5 µM [rising, single point]"
Cc1cc(C)c2cc(CN(CCO)C(=O)Nc3ccc(F)cc3)c(=O)[nH]c2c1,–,"11.2 µM [rising, single point]"
COc1ccc(-c2noc(CCC(=O)O)n2)cc1,"6.31 µM [falling, single point]","6.31 µM [falling, single point]"
COc1ccc(C(=O)CSc2nnc(Cn3cnc4ccccc43)o2)cc1,"5.62 µM [rising, full curve]","5.01 µM [rising, partial curve, poor fit]"
Cc1cc(S(=O)(=O)N(Cc2ccc(C(C)C)cc2)CC2CCCO2)ccc1-n1cnnn1 (stereo unspecified),"15.8 µM [rising, partial curve]",–
O=c1c(C=NCc2ccccc2)c(NCc2ccccc2)nc2ccccn12,"15.8 µM [falling, partial curve]",–
CCCCc1ccc(S(=O)(=O)NCCc2ccncc2)cc1,"14.1 µM [rising, partial curve]",–
CCCS(=O)(=O)c1nc(S(=O)(=O)c2ccc(C)cc2)c(NCc2ccc3c(c2)OCO3)s1,"0.631 µM [falling, full curve, poor fit]","14.1 µM [falling, partial curve]"
Nc1cc(-c2ccncc2)c[nH]c1=O,"0.316 µM [falling, full curve, poor fit]","0.178 µM [falling, full curve]"
O=c1c2ccccc2nc2n1C(CSCc1ccccc1)CS2 (stereo unspecified),"11.2 µM [rising, partial curve]","7.08 µM [rising, full curve, poor fit]"
CC(C)c1ccc(C(O)c2cnc(C(C)C)n2C)cc1 (stereo unspecified),"22.4 µM [rising, single point]",–
c1ccc2c(c1)CCCc1cc(NCCN3CCOCC3)nnc1-2,"0.000891 µM [falling, full curve, poor fit]","0.000891 µM [falling, full curve, poor fit]"
CCN(CC)S(=O)(=O)c1ccc(N2CCOCC2)c(NC(=O)c2ccccc2)c1,"17.8 µM [rising, partial curve]","14.1 µM [rising, single point]"
CCOC(=O)c1ccc(N2NC(=O)/C(=C/c3ccc(OC(=O)c4ccco4)c(OC)c3)C2=O)cc1,"22.4 µM [rising, partial curve]","35.5 µM [rising, partial curve]"

# Sorted by SMILES length (rising): four of the compounds above.
SMILES,AC50 [1],AC50 [2]
CCCCCCCCC(=O)NNC(=O)c1c(O)c2ccccc2n(CC)c1=O,"7.08 µM [rising, partial curve]",–
CCN(CCCNC(=O)COc1cc(=O)n(CC)c2ccccc12)Cc1ccccc1,"11.2 µM [rising, partial curve]",–
COc1ccc(F)cc1CN1CCN(c2cc(C)nc3c4c(C)cc(C)nc4nn23)CC1,"14.1 µM [rising, single point]",–
CC(=O)Nc1ccc(NC(=O)c2ccccc2S(=O)(=O)c2ccccc2[N+](=O)[O-])cc1,"0.178 µM [rising, full curve, poor fit]",–
